Results are given in words; binding and its absence hold for the method and conditions named. For part of these data: In cells and extracts the contact can be indirect. Some binding calls cover weakened binding; strength is not graded here.
Key:
[1] = biological target: rhodopsin, endogenous in mouse retina (mouse (endogenous in retina)) (UniProt P15409); assay: co-IP; endogenous proteins in mouse retinal extracts (6 retinas pooled from 3 WT or Myo1c-KO mice) in RIPA buffer; anti-rhodopsin or mouse/rabbit IgG overnight at 4 °C, protein G agarose; immunoblot for MYO1C
[2] = biological target: rhodopsin overexpressed in HEK293 cells (pcDNA3 rod opsin construct) (UniProt P08100); assay: far-Western, overlay or dot blot; lysate of HEK293 cells overexpressing rhodopsin (or empty pcDNA3 vector) separated by SDS-PAGE and transferred to a membrane; overlaid with 5 µg purified recombinant full-length MYO1C, 4 °C, 4 h; detected with MYO1C antibody; only the binder purified
[3] = biological target: mammalian-expressed and purified Flag rhodopsin (UniProt P08100); assay: ELISA; 100 ng purified rhodopsin coated on Maxisorp wells at 4 °C overnight; blocked with 5% BSA; 200 ng MYO1C protein, 4 h, 37 °C; detected with MYO1C antibody, absorbance at 450 nm; both purified

Protein sequences, listed by entry. Tags and fused reporters are not part of them.
UniProt P15409: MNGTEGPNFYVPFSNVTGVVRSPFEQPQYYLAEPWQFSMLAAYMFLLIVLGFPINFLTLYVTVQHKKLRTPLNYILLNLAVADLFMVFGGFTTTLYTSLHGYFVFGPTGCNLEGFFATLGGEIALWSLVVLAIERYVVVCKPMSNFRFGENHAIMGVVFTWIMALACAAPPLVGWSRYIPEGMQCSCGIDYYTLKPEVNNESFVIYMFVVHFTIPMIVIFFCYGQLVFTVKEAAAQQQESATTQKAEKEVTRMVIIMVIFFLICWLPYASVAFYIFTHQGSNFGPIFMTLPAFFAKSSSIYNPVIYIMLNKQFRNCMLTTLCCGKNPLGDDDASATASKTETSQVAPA
UniProt P08100: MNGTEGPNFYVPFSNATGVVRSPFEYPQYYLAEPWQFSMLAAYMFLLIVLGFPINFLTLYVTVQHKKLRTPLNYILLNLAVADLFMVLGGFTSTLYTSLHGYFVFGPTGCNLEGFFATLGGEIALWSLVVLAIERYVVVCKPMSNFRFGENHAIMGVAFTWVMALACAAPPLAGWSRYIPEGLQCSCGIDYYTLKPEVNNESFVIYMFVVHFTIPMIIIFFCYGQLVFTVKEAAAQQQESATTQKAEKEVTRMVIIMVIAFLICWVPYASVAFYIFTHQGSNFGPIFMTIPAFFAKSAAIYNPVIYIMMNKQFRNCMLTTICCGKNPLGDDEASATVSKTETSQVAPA
UniProt Q9WTI7: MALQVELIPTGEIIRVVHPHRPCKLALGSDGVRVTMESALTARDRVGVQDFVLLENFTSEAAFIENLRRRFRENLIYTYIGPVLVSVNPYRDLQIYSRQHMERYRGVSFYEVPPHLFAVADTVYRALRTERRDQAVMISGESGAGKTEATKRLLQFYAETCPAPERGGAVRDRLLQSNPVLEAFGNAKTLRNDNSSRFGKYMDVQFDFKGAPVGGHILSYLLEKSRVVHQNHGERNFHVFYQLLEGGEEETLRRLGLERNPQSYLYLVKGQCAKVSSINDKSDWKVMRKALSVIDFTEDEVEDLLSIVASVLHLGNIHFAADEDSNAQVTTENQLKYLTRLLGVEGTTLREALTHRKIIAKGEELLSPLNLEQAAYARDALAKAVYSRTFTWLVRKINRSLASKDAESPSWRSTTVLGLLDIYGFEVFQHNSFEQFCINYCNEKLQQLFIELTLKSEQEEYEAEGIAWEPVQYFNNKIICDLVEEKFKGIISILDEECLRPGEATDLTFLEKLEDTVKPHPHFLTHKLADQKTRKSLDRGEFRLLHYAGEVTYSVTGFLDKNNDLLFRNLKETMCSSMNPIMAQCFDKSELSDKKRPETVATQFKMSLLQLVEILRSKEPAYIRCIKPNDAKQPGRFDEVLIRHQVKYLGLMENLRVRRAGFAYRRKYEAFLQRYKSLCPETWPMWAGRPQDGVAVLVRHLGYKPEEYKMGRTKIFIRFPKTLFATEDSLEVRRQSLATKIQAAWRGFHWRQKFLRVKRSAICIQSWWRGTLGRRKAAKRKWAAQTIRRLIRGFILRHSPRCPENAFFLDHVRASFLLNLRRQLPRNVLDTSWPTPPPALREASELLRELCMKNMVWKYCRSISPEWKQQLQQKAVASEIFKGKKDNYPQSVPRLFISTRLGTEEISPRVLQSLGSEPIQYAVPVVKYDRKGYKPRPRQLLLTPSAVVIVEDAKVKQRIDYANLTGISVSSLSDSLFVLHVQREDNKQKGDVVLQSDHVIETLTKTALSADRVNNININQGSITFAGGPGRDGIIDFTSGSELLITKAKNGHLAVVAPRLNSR

Row | Substance | binding [1] | binding [2] | binding [3]
1 | MYO1C (unconventional myosin 1C), endogenous in mouse retina (from UniProt Q9WTI7 1-1063) | binds |  | 
2 | baculovirus-produced purified recombinant full-length mouse MYO1C protein (from UniProt Q9WTI7 1-1063) |  | binds | binds

— article PMC8229726
